The values that follow come from the supplement of paper PMC10849652.

By UniProt entry, the sequences of proteins in these tests, tags left out. Where a name states a change or a piece, a line headed by the entry shows the natural chain unless it says otherwise.
UniProt Q86SX3: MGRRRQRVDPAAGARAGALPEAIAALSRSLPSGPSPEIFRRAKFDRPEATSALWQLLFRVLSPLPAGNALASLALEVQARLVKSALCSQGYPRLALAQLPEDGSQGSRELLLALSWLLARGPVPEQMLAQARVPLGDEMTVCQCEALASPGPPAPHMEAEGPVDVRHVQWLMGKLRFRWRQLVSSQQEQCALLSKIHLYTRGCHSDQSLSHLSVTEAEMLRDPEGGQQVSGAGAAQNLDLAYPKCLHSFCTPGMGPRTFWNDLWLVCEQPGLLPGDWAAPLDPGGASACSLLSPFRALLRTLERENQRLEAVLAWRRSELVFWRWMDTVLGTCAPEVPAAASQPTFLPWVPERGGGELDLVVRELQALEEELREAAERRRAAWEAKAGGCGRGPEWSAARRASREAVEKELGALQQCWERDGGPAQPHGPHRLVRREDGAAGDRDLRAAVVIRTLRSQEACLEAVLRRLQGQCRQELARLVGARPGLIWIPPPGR
UniProt Q9NZ01: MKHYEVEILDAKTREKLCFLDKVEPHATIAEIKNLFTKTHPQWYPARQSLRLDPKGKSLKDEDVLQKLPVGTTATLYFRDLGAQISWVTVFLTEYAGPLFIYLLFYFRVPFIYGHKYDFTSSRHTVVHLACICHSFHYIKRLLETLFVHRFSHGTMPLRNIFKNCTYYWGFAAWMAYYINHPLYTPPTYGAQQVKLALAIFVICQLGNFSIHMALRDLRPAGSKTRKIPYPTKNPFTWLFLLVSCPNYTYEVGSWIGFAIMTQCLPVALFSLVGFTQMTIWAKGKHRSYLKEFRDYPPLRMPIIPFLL
UniProt Q8TC07: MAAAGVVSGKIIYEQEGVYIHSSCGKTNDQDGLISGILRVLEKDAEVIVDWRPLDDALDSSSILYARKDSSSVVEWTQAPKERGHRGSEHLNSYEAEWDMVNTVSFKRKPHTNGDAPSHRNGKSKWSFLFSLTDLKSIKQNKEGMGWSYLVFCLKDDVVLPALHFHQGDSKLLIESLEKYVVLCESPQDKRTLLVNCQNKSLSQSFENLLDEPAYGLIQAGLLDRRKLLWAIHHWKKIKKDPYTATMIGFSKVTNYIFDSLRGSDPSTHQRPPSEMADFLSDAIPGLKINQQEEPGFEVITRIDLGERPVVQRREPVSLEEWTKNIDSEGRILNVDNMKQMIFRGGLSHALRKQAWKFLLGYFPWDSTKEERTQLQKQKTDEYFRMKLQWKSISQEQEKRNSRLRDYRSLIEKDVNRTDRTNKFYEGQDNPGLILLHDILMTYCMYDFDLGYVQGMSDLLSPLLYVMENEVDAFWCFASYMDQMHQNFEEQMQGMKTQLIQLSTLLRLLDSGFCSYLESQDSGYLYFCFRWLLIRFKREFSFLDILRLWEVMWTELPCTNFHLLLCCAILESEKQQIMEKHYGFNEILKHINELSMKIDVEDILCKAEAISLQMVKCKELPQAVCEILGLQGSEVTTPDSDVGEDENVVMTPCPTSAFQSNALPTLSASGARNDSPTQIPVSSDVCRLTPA
UniProt Q86VP1, whole entry, looked up: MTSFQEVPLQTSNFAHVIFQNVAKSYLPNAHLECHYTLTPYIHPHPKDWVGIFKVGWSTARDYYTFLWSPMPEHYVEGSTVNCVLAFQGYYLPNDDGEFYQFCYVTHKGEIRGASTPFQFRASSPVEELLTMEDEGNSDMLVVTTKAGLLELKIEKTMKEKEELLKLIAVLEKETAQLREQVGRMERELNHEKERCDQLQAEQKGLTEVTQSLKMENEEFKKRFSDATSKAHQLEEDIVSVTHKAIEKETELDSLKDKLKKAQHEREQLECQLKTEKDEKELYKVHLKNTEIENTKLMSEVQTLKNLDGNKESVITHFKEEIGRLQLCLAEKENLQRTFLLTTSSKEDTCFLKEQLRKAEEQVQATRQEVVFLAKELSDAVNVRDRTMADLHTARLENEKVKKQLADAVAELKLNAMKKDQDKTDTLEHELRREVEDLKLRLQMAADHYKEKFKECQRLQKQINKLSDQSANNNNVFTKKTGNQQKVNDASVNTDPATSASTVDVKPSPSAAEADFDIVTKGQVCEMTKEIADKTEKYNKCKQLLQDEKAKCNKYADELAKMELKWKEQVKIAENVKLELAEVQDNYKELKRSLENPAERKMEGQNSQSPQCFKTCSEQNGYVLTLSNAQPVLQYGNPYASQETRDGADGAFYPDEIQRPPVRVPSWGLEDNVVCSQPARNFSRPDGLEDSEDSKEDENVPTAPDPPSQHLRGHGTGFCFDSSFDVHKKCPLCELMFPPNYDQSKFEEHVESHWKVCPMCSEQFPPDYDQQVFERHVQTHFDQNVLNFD
UniProt P17987, whole entry, looked up: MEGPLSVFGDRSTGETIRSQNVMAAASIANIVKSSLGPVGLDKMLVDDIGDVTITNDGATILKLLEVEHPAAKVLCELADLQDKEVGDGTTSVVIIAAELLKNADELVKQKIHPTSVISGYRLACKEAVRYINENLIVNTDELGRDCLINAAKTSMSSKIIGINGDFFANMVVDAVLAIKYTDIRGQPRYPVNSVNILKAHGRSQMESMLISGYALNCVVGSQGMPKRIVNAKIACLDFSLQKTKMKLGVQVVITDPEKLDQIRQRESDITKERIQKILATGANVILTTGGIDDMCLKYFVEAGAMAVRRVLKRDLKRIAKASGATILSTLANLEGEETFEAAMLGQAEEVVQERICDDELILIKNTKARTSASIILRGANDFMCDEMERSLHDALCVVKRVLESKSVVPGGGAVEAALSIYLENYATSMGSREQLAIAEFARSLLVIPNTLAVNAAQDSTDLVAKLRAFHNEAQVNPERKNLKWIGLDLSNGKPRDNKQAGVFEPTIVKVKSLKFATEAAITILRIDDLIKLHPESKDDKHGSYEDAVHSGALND
UniProt Q3MII6: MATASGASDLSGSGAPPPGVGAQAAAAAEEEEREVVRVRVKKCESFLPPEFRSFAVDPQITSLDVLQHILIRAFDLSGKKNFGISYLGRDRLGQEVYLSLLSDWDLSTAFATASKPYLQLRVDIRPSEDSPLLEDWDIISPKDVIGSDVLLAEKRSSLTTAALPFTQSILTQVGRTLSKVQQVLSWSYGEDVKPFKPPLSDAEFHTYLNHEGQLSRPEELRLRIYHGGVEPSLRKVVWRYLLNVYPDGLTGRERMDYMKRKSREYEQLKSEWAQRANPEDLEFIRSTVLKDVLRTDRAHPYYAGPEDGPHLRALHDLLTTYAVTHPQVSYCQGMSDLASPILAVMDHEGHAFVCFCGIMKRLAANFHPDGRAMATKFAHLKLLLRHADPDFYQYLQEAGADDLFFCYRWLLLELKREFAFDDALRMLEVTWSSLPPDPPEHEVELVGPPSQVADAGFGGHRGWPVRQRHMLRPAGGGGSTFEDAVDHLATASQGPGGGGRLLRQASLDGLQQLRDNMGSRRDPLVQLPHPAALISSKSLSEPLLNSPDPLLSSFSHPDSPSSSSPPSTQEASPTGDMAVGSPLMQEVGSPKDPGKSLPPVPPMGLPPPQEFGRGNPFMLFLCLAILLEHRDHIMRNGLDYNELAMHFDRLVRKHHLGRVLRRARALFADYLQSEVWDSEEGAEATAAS
UniProt Q0IIM8: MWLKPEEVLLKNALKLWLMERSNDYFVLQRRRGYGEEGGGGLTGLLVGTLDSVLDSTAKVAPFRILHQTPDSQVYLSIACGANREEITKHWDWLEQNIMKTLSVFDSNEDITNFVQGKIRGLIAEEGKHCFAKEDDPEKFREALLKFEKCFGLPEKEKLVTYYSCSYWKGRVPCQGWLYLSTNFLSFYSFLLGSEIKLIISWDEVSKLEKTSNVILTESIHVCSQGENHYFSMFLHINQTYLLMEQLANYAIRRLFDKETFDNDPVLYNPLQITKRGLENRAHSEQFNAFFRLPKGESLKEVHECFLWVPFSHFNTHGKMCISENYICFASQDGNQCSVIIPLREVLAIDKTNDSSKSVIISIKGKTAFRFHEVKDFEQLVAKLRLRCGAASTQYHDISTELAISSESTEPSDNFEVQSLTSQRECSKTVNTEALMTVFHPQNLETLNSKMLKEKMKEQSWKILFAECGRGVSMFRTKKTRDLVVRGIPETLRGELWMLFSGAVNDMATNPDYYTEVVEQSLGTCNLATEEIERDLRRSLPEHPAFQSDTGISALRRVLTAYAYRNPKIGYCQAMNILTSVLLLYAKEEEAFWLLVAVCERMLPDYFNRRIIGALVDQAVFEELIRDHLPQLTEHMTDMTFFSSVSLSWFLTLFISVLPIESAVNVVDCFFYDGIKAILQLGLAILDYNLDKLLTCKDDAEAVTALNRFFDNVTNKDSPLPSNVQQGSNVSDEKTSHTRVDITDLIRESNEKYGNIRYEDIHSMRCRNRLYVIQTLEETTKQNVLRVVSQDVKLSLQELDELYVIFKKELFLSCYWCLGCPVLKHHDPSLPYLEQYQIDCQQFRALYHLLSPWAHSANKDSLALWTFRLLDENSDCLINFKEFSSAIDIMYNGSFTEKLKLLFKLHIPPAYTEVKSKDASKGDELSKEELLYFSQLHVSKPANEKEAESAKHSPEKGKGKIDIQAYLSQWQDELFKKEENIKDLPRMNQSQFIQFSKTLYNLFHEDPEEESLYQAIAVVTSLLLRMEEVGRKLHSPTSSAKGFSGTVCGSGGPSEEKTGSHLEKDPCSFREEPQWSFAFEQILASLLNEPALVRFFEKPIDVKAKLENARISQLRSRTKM
UniProt P37837: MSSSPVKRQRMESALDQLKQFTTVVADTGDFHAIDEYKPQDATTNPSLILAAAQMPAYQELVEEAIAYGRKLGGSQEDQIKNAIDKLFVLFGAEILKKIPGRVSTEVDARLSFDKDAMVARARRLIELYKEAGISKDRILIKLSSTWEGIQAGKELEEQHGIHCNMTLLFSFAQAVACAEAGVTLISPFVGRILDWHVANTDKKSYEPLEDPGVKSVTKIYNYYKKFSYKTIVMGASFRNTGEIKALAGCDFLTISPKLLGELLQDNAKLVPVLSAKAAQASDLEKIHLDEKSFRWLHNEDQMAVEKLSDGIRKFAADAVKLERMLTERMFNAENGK
UniProt Q66K14, whole entry, looked up: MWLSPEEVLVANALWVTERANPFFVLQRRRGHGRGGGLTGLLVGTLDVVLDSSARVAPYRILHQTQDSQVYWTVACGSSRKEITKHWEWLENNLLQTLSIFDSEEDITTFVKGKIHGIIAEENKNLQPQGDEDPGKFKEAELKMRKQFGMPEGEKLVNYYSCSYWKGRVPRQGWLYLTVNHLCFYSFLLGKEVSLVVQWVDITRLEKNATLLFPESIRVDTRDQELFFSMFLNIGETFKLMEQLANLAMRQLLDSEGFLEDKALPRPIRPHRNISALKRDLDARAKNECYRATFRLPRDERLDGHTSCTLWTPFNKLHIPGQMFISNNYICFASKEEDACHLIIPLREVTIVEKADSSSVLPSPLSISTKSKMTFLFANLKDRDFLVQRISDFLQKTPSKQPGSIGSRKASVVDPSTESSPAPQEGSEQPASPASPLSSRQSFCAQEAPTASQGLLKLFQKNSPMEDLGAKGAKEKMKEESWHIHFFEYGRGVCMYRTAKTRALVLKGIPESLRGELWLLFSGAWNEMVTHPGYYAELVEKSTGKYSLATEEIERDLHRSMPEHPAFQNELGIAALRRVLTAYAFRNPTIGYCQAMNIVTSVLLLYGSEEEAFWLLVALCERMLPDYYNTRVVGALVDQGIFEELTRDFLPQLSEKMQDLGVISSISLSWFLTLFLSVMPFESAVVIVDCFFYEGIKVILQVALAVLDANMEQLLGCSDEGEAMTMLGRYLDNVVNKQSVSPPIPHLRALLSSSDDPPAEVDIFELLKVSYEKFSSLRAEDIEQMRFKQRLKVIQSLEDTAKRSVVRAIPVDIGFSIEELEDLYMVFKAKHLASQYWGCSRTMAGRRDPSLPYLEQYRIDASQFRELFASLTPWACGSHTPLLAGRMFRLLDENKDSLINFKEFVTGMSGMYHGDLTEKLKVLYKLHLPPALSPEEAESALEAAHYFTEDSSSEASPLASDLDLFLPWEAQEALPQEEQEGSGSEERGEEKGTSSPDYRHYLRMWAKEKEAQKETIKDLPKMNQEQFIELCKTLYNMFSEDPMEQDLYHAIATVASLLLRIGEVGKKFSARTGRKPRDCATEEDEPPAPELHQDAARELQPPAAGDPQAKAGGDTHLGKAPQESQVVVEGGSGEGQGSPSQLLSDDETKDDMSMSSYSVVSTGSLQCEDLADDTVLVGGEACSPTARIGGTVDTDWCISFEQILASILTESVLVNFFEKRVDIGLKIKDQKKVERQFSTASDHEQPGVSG

This is one part of the list.

What all share (test): log2 fold change, soluble protein after heating vs DMSO (PISA); higher = thermal stabilisation; K562 lysate, 10 uM; active = over 0.2 and 3.5 SD of the protein, either way, in both replicates (recomputed)
Compound in one assay: Cc1cn(-c2cc(NC(=O)c3ccc(C)c(Nc4nccc(-c5cccnc5)n4)c3)cc(C(F)(F)F)c2)cn1 [nilotinib]
A digest of the protocol: (§1)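 A 30 min treatment with 10 μM compound was applied to crude K562 extract at 1 mg/mL protein in PBS pH 7.4 with 1 mM MgCl2. Heating for 3 min spanned 48°C-58°C, after which aliquots were pooled, adjusted to 0.5% NP-40 at 4°C and spun at 21,000xg for 90 min. TMTpro 16plex LC-MS/MS of the supernatant, with channel sums equalised, gave values recorded as log-two fold change in thermal stability against solvent controls, from duplicates.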

Compound in assay [1]: Cc1nc(Nc2n[nH]c3c2CN(C(=O)N[C@H](CN(C)C)c2ccccc2)C3(C)C)c2sccc2n1
Summed up: as §1

Compound in a further assay: Cc1nc(Nc2ncc(C(=O)Nc3c(C)cccc3Cl)s2)cc(N2CCN(CCO)CC2)n1 [dasatinib]
Summed up: as §1

Compound in assay [2]: Cc1ncc(-c2ccnc(Nc3ccc(S(C)(=O)=O)cc3)n2)n1C(C)C
Summed up:
as §1

Compound in assay [3]: Cn1cc(-c2ccc3c(c2)CCN3C(=O)Cc2cccc(C(F)(F)F)c2)c2c(N)ncnc21
Summed up: as §1

Compound in the next assay: Cn1cc(CNCC2CCN(c3ncc(C(=O)NO)cn3)CC2)c2ccccc21 [quisinostat]
A digest of the protocol:
as §1

Compound in a further assay: Cn1cncc1[C@@](N)(c1ccc(Cl)cc1)c1ccc2c(c1)c(-c1cccc(Cl)c1)cc(=O)n2C [tipifarnib]
Summed up:
as §1

Compound in assay [4]: NC(=O)Nc1cc(-c2cccc(F)c2)sc1C(=O)N[C@H]1CCCNC1
Summed up: as §1

Compound in assay [5]: NC(=O)c1cnc(N[C@@H]2CCCC[C@@H]2N)nc1Nc1cccc(-n2nccn2)c1
Summed up: as §1

Compound in assay [6]: NC1(c2ccc(-c3nc4ccn5c(=O)[nH]nc5c4cc3-c3ccccc3)cc2)CCC1
Summed up: as §1

As to TEDC1 (UniProt Q86SX3), the log2 fold change is inactive: 0.015 with nilotinib; inactive: -0.016 in assay [1]; inactive: 0.087 with dasatinib; inactive: -0.038 in assay [2]; inactive: 0.05 in [3]; inactive: 0.161 with quisinostat. Besides, the log2 fold change is inactive: -0.049 with tipifarnib, inactive: -0.074 in assay [4], inactive: 0.104 in assay [5] and inactive: -0.022 in assay [6].
On to TDRKH (UniProt Q9Y2W6), for which the log2 fold change was inactive: -0.01 in the assay with nilotinib; inactive: -0.077 in [1]; inactive: -0.059 with dasatinib; inactive: 0.018 in [2]; inactive: 0.028 in [3]; inactive: -0.087 in the assay with quisinostat. For the same target, the log2 fold change in the assay with tipifarnib was inactive: -0.048; in [4] it was inactive: 0.041; in [5] it was inactive: 0.003; in assay [6], inactive: 0.067.
On to TARDBP (UniProt Q13148), for which the log2 fold change was inactive: -0.146 with nilotinib; inactive: -0.079 in [1]; inactive: -0.005 in the assay with dasatinib; inactive: -0.051 in assay [2]; inactive: 0.007 in assay [3]; inactive: -0.087 with quisinostat. Moreover, the log2 fold change with tipifarnib is active: -0.554; in [4], inactive: 0.136; in [5], inactive: 0.021; in assay [6] it was inactive: 0.027.
Regarding TECR (UniProt Q9NZ01), the log2 fold change with nilotinib is inactive: -0.06; in assay [1], inactive: 0.018; in the assay with dasatinib it was inactive: -0.062; in [2], inactive: -0.011; in assay [3] it was inactive: -0.043; in the assay with quisinostat, inactive: -0.024. Besides, the log2 fold change is inactive: -0.09 with tipifarnib, inactive: 0.041 in assay [4], inactive: -0.009 in assay [5] and inactive: -0.047 in [6].
On to TBC1D15 isoform 3 (UniProt Q8TC07), for which the log2 fold change with nilotinib is inactive: -0.021; in [1] it was inactive: 0.021; with dasatinib it was inactive: -0.041; in assay [2], inactive: -0.001; in assay [3], inactive: 0.02; with quisinostat it was inactive: -0.072. For the same target, the log2 fold change with tipifarnib was inactive: -0.024; in assay [4], inactive: 0.005; in assay [5], inactive: -0.008; in [6], inactive: -0.006.
As to TAX1BP1 (UniProt Q86VP1), the log2 fold change in the assay with nilotinib was inactive: -0.041; in assay [1], inactive: 0.013; with dasatinib, inactive: -0.021; in assay [2], inactive: 0.007; in [3], inactive: 0.007; with quisinostat, inactive: -0.018. Besides, the log2 fold change in the assay with tipifarnib was inactive: -0.014; in assay [4], inactive: 0.021; in assay [5], inactive: 0.018; in assay [6], inactive: 0.032.
Take TBCD (UniProt Q9BTW9): the log2 fold change with nilotinib was inactive: 0.008; in assay [1] it was inactive: -0.029; with dasatinib it was inactive: -0.045; in assay [2] it was inactive: 0.013; in assay [3], inactive: 0.015; with quisinostat, inactive: -0.053. For the same target, the log2 fold change with tipifarnib was inactive: 0.001; in assay [4] it was inactive: 0.023; in assay [5], inactive: 0.006; in [6], inactive: -0.023.
As to TCP1 (UniProt P17987), the log2 fold change is inactive: 0.001 with nilotinib; inactive: -0.015 in assay [1]; inactive: 0.013 in the assay with dasatinib; inactive: -0.004 in [2]; inactive: -0.007 in assay [3]; inactive: 0.018 in the assay with quisinostat. In addition, the log2 fold change was inactive: 0.007 with tipifarnib, inactive: -0.02 in assay [4], inactive: -0.011 in assay [5] and inactive: 0.022 in assay [6].
Regarding TBC1D25 (UniProt Q3MII6), the log2 fold change with nilotinib is inactive: 0.009; in [1], inactive: -0.207; with dasatinib, inactive: 0.006; in assay [2], inactive: 0.09; in [3], inactive: 0.011; with quisinostat, inactive: 0.084. The log2 fold change was inactive: 0.183 with tipifarnib, inactive: 0.001 in [4], inactive: 0.102 in assay [5] and inactive: 0.076 in assay [6].
In the case of TBC1D8B (UniProt Q0IIM8), the log2 fold change with nilotinib is inactive: 0.021; in assay [1], inactive: -0.035; in the assay with dasatinib, inactive: 0.01; in assay [2], inactive: 0.015; in assay [3], inactive: -0.042; with quisinostat, inactive: -0.061. The log2 fold change with tipifarnib was inactive: 0.036; in assay [4], inactive: 0.034; in assay [5], inactive: -0.042; in assay [6] it was inactive: -0.034.
In the case of TALDO1 (UniProt P37837), the log2 fold change is inactive: -0.004 with nilotinib; inactive: -0.009 in [1]; inactive: -0.008 with dasatinib; inactive: -0.027 in assay [2]; inactive: 0.022 in assay [3]; inactive: 0.068 in the assay with quisinostat. The log2 fold change is inactive: 0.047 with tipifarnib, inactive: -0.001 in assay [4], inactive: -0.016 in assay [5] and inactive: 0.043 in assay [6].
Take TBL2 (UniProt Q9Y4P3): the log2 fold change is inactive: -0.025 with nilotinib; inactive: -0.043 in assay [1]; inactive: -0.008 with dasatinib; inactive: -0.004 in assay [2]; inactive: 0.014 in [3]; inactive: -0.031 in the assay with quisinostat. The log2 fold change in the assay with tipifarnib was inactive: -0.06; in [4] it was inactive: -0.007; in assay [5], inactive: 0.003; in assay [6], inactive: -0.037.
In the case of TBC1D9B isoform 2 (UniProt Q66K14), the log2 fold change was inactive: 0.107 with nilotinib; inactive: -0.064 in assay [1]; inactive: 0.028 in the assay with dasatinib; inactive: 0 in [2]; inactive: -0.002 in assay [3]; inactive: -0.097 with quisinostat. The log2 fold change is inactive: -0.048 with tipifarnib, inactive: 0.018 in [4], inactive: 0.053 in [5] and inactive: -0.166 in assay [6].
